US8383887B2, “Methods of using plants containing the gdhA gene” (Southern Illinois University Carbondale, priority 2009, dated 2013)

Tested on: gdhA+ Nicotiana tabacum plants
Assay: Metabolites with altered abundance in leaf and root extracts of gdhA+ vs gdhA− Nicotiana tabacum
Details: for Percent Change in abundance in gdhA+ plants compared to gdhA− plants: Nicotiana tabacum
[1] = root extracts, % changes are ±2%
[2] = root extracts, gdhA+ plants compared to gdhA− plants, % changes are ±2%
[3] = leaf extracts, metabolite abundance, gdhA+ vs gdhA− Nicotiana tabacum
[4] = root extracts, metabolite abundance, gdhA+ vs gdhA− Nicotiana tabacum
[5] = fatty acids (Table 6Ii), tissue not given
[6] = leaf extracts, % changes are ±2%
[7] = leaf extracts, gdhA+ plants compared to gdhA− plants, % changes are ±2%

CC1(C)C2CCC(=O)C1C2 (stereo not drawn) [Nopinone]
Percent Change in abundance in gdhA+ plants compared to gdhA− plants [1]: 20%

4,4′-Dimethylcholestatrienol
Percent Change in abundance in gdhA+ plants compared to gdhA− plants [1]: 16%

CCCCCCCCCCCCCCCC(N)=O [Hexadecanamide]
Percent Change [2]: 12%

N[C@@H](C=O)[C@@H](O)[C@H](O)[C@H](O)CO [2-amino-2-deoxy-D-glucose]
Percent Change in abundance in gdhA+ plants compared to gdhA− plants [1]: 276%

OC[C@@]12OC[C@@H](O1)[C@@H](O)[C@@H](O)[C@@H]2O [Sedoheptulose anhydride]
Percent Change in abundance in gdhA+ plants compared to gdhA− plants [1]: 909%

CCCCCCC1CC(=O)O1 (stereo not drawn) [Gamma-Nonanolactone]
Percent Change in abundance in gdhA+ plants compared to gdhA− plants [1]: 43% | Percent Change [2]: 43%

N[C@@H](Cc1ccccc1)C(=O)O [Phenylalanine]
Percent Change [3]: 244% | Percent Change [4]: 233%

CCCCCCC(=O)CCCCCCCCCCC(=O)OC [Octadecanoic acid, 12-oxo-, methyl ester]
Percent Change in abundance in gdhA+ plants compared to gdhA− plants [1]: 14%

CCCCC1=C2NC(N)=N[C@H]3CC[C@@H](C[C@@H]1C)[C@@H]23 [(−)-Ptilocaulin]
Percent Change in abundance in gdhA+ plants compared to gdhA− plants [1]: 294% | Percent Change [2]: 294%

CCCCCCCCCCCCN1CCCC1=O [1-Lauryl-2-pyrrolidone]
Percent Change [2]: 29%

CCCCCCCCCCCCCCCCCCC(=O)O [n-Nonadecanoic Acid]
Percent Change [5]: 10%

COc1cc(NS(=O)(=O)c2ccc(N)cc2)ncn1 [4-amino-N-(6-methoxy-4-pyrimidyl)-benzenesulfonamide]
Percent Change in abundance in gdhA+ plants compared to gdhA− plants [1]: 20% | Percent Change [2]: 20%

CCCCCCCCCCCCC(=O)O [Tridecanoic acid]
Percent Change [5]: 22%

CCCCCCCCCCCCCCCCCCCCCCC(=O)O [Tricosanoic acid]
Percent Change [5]: 13% | Percent Change in abundance in gdhA+ plants compared to gdhA− plants [1]: 10% and 13%

CCCCCC/C=C\CCCCCCCC(=O)O [Palmitoleic Acid]
Percent Change [5]: 29% | Percent Change in abundance in gdhA+ plants compared to gdhA− plants [6]: 12% | Percent Change in abundance in gdhA+ plants compared to gdhA− plants [1]: 29%

CC(C)(C)OC(=O)NC(Cc1c[nH]c2ccccc12)C(=O)O [N-alpha-BOC-L-tryptophan]
Percent Change in abundance in gdhA+ plants compared to gdhA− plants [6]: 333% | Percent Change [3]: 333%

NC(=O)CC[C@H](NC(=O)CC[C@H](N)C(=O)O)C(=O)O [(gamma-L-glutamyl)-L-glutamine]
Percent Change in abundance in gdhA+ plants compared to gdhA− plants [1]: 263% | Percent Change [4]: 263%

CCCCCCCCCCCCCCC(=O)O [Pentadecanoic Acid]
Percent Change [5]: 6% | Percent Change in abundance in gdhA+ plants compared to gdhA− plants [6]: 23% | Percent Change in abundance in gdhA+ plants compared to gdhA− plants [1]: 6%

CCCCCCCCCCCCCC(N)=O [Tetradecanamide]
Percent Change in abundance in gdhA+ plants compared to gdhA− plants [1]: 23% | Percent Change [2]: 23%

C=CCC1CCCC1C1C(=O)NC(=O)N(C)C1=O (stereo not drawn) [N-methyl-5-allyl-cyclopentylbarbituric acid]
Percent Change in abundance in gdhA+ plants compared to gdhA− plants [6]: 208% | Percent Change [7]: 208%

NC(=O)CC[C@H](N)C(=O)O [Glutamine]
Percent Change [3]: 357% | Percent Change [4]: 357%

O=C(O)[C@H](O)[C@@H](O)CO [L-threonate]
Percent Change in abundance in gdhA+ plants compared to gdhA− plants [6]: 370% | Percent Change [7]: 370%

CCCCCCC(O)CCCCCCCCCCC(=O)O (racemic) [DL-12-Hydroxystearic acid]
Percent Change [5]: 196%

O=[N+]([O-])c1ccc(C=Cc2cccc(CO)n2)o1 [6-[2-(5-nitrofuranyl)ethenyl]-2-pyridinemethanol]
Percent Change in abundance in gdhA+ plants compared to gdhA− plants [1]: 213% | Percent Change [2]: 213%

C1=Cc2ccccc2Nc2ccccc21 [o,o′-Iminostilbene]
Percent Change [2]: 13%

CCCCC[C@@H](/C=C/C=C\CCCCCCCC(=O)O)OO [(9Z,11E)-(13S)-13-Hydroperoxyoctadeca-9,11-dienoate]
Percent Change in abundance in gdhA+ plants compared to gdhA− plants [1]: 194%

O=C(O)[C@@H]1CCCN1 [Proline]
Percent Change [4]: 256%

CCCCCCCCCCCCCCCCCCCCCCC(=O)OCC [Ethyl tricosanoate]
Percent Change in abundance in gdhA+ plants compared to gdhA− plants [6]: 24% | Percent Change in abundance in gdhA+ plants compared to gdhA− plants [1]: 7%

CCCCCCCCCC(N)=O [Decanamide]
Percent Change in abundance in gdhA+ plants compared to gdhA− plants [1]: 435% | Percent Change [2]: 435%

CC(=O)N1CCC(C(=O)O)CC1 [1-Acetyl-4-piperidinecarboxylic acid]
Percent Change in abundance in gdhA+ plants compared to gdhA− plants [1]: 270% | Percent Change [2]: 270%

2,2′-ethyledene bis(4,6-di-t-butyl
Percent Change in abundance in gdhA+ plants compared to gdhA− plants [1]: 12% | Percent Change [2]: 12%

CCOC(=O)CCC1CCC(=O)CC1 [Cyclohexanepropionic acid, 4-oxo-, ethyl ester]
Percent Change in abundance in gdhA+ plants compared to gdhA− plants [1]: 25% | Percent Change [2]: 25%

CC(C)c1cccc(C(C)C)c1N=C1NCCN1 [N-[2,6-bis(isopropyl)phenyl]-2-imidazolidineimine]
Percent Change in abundance in gdhA+ plants compared to gdhA− plants [1]: 345%

C=CCC1(CCCC)C(=O)NC(=O)NC1=O [5-allyl-5-butylbarbituric acid]
Percent Change in abundance in gdhA+ plants compared to gdhA− plants [1]: 22% | Percent Change [2]: 22%

O=C(O)C1CC(O)C=N1 (stereo not drawn) [3-hydroxy-1-pyrroline-delta-carboxylate]
Percent Change in abundance in gdhA+ plants compared to gdhA− plants [6]: 133% | Percent Change [3]: 133% | Percent Change [4]: 244%

O=C1C=c2cc[nH]c2=CC1=O [Indole-5,6-quinone]
Percent Change in abundance in gdhA+ plants compared to gdhA− plants [1]: 40%

Cc1ccccc1C=CC(=O)O [2-methyl cinnamic acid]
Percent Change in abundance in gdhA+ plants compared to gdhA− plants [1]: 59%

CCCCCCC(=O)/C=C/CCCCCCCCC(=O)OC [Methyl 12-oxo-trans-10-octadecenoate]
Percent Change in abundance in gdhA+ plants compared to gdhA− plants [1]: 25%

c1cnc2c(c1)CCC2 [2,3-cyclopentenopyridine]
Percent Change in abundance in gdhA+ plants compared to gdhA− plants [6]: 176% and 278% | Percent Change [3]: 278%

O=NN1CCCC1 [N-Nitrosopyrrolidine]
Percent Change in abundance in gdhA+ plants compared to gdhA− plants [6]: 152% | Percent Change [7]: 152% | Percent Change in abundance in gdhA+ plants compared to gdhA− plants [1]: 714% | Percent Change [2]: 714%

CCOc1ccc2c(C)cc(=O)oc2c1 [7-Ethoxy-4-methylcoumarin]
Percent Change in abundance in gdhA+ plants compared to gdhA− plants [1]: 36%

CCC/C=C\[C@@H](/C=C/C=C\CCCCCCCC(=O)O)OO [(9Z,11E,14Z)-(13S)-Hydroperoxyoctadeca-(9,11,14)-trienoate]
Percent Change in abundance in gdhA+ plants compared to gdhA− plants [1]: 238% and 386%

N[C@@H](Cc1c[nH]cn1)C(=O)O [Histidine]
Percent Change [3]: 156% | Percent Change [4]: 833%

CCCCCCCC(=O)CCCCCC(=O)OC [Tetradecanoic acid, 7-oxo-, methyl ester]
Percent Change in abundance in gdhA+ plants compared to gdhA− plants [1]: 43%

O=C1C(=O)C2C=CC1O2 [7-Oxabicyclo[2.2.1]hept-5-ene-2,3-dione]
Percent Change in abundance in gdhA+ plants compared to gdhA− plants [1]: 41%

CNCCc1ccc(O)c(O)c1 [Epinine]
Percent Change in abundance in gdhA+ plants compared to gdhA− plants [1]: 222%

COCC(O)CO (stereo not drawn) [3-Methoxy-1,2-propanediol]
Percent Change in abundance in gdhA+ plants compared to gdhA− plants [1]: 40% | Percent Change [2]: 40%

S=C=NCC1CCC(CN=C=S)CC1 (stereo not drawn) [Isothiocyanic acid 1,4-cyclohexylene-dimethylene ester]
Percent Change in abundance in gdhA+ plants compared to gdhA− plants [1]: 31% | Percent Change [2]: 31%

CC(=O)O.CC(=O)O.O=C1c2ccccc2C(=O)c2c(NCCNCCO)ccc(NCCNCCO)c21 [1,4-bis(2-(2-hydroxyethyl)amino) ethyl) amino)-9,10-anthrancenedione diacetate]
Percent Change in abundance in gdhA+ plants compared to gdhA− plants [6]: 345% | Percent Change [7]: 345%

Cc1ccc2[nH]cc(CC(N)C(=O)O)c2c1 (racemic) [5-Methyl-DL-tryptophan]
Percent Change in abundance in gdhA+ plants compared to gdhA− plants [6]: 40% | Percent Change [3]: 40%

CCCCCCCCCCCCCCCCCC(=O)OCCC [Propyl stearate]
Percent Change in abundance in gdhA+ plants compared to gdhA− plants [1]: 18%

O=c1cc(O)c2ccccc2o1 [4-hydroxycoumarin]
Percent Change in abundance in gdhA+ plants compared to gdhA− plants [6]: 270%

CN1CCCC1c1cccnc1 (stereo not drawn) [Nicotine]
Percent Change in abundance in gdhA+ plants compared to gdhA− plants [1]: 270%

CC(=O)O[C@@H]1[C@@H](OC(C)=O)[C@@H]2OC[C@@H](O2)[C@H]1OC(C)=O [1,6-Anhydro-beta-D-glucopyranose 2,3,4-Triacetate]
Percent Change in abundance in gdhA+ plants compared to gdhA− plants [1]: 588%

CCCCCCCC/C=C\CCCCCCCC(=O)O [Oleic acid]
Percent Change [5]: 32% | Percent Change in abundance in gdhA+ plants compared to gdhA− plants [6]: 14% | Percent Change in abundance in gdhA+ plants compared to gdhA− plants [1]: 19% and 32%

3-aryl-5-oxoproline ethyl ester
Percent Change in abundance in gdhA+ plants compared to gdhA− plants [6]: 303% | Percent Change [3]: 303%

C1CN2CCC1N1CCC2CC1 [1,5-diaatricyclo[4.2.2.2(2,5)]dodecane]
Percent Change in abundance in gdhA+ plants compared to gdhA− plants [1]: 625%

NC(=O)C[C@H](N)C(=O)O [Asparagine]
Percent Change [3]: 455% | Percent Change [4]: 1111%

CCCCC(CCCC)(C(=O)OCC)C(=O)OCC [Propanedioic acid, dibutyl-, diethyl ester]
Percent Change in abundance in gdhA+ plants compared to gdhA− plants [1]: 70%

NCCCC[C@H](NC(CCc1ccccc1)C(=O)O)C(=O)N1CCC[C@H]1C(=O)O (stereo partly drawn) [1-[N-(1-carboxy-3-phenylpropyl)-L-lysyl]-L-proline]
Percent Change in abundance in gdhA+ plants compared to gdhA− plants [1]: 278% and 244% and 400% | Percent Change [4]: 278% and 244% and 400%

CCCCCCCCCCCCOS(=O)(=O)c1ccccc1 [Benzenesulfonic acid dodecylester]
Percent Change in abundance in gdhA+ plants compared to gdhA− plants [1]: 63% | Percent Change [2]: 63%

CCCCCCOc1cc(C)c(O)c(C)c1C [1-O-Hexyl-2,3,5-trimethylhydroquinone]
Percent Change in abundance in gdhA+ plants compared to gdhA− plants [1]: 179%

CCCCCCCC=CC(=O)O [2-Decenoic Acid]
Percent Change in abundance in gdhA+ plants compared to gdhA− plants [1]: 56% | Percent Change [2]: 56%

CCCCCCCCCC(=O)O [Capric acid]
Percent Change [5]: 13% | Percent Change in abundance in gdhA+ plants compared to gdhA− plants [1]: 13%

Values joined by “and” are separate entries in the source; they are usually repeats but may differ in a detail not shown here. Identical values can stand only once.
